Screen size: about 360,000 compounds; about 7,500 (2.1%) were called active. This list was built around the results that the source calls inconclusive (neither active nor inactive); the mix of calls is not that of the screen. Calls come from the whole dose curve; as a rule, active = well fitted inhibition curve with a large enough effect; inconclusive = small, poorly fitted or top-dose-only effect, or effect the other way; inactive = flat fitted curve, though single readings scatter. Where the call is inconclusive, the potency comes from a doubtful curve fit.
test: Nrf2 qHTS screen for inhibitors; conditions: A549 ARE-Fluc reporter, luciferase luminescence, 18-24 h; activity change, negative = inhibition: at 46 µM (top of the series); note: nearly all actives have a fitted effect of over 60% in size
How it was run: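 Reporter: ARE-Fluc in A549. Exposure: 18-24 h, 37 °C, 5% CO2, 5% FBS OPTI-MEM. Readouts: fluorescent cytotoxicity (CellTiter-Fluor), then luminescent Nrf2 signal after BugLite.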
% is set by controls: 0 for no effect and ±100 for the full control effect; potency is the fitted concentration of half-maximal effect.

Row | SMILES | Potency | activity change, negative = inhibition
1 | O=C(C1=C[C@H](c2ccc3c(c2)OCO3)C[C@H](OCc2ccc(CO)cc2)O1)N1CCN(Cc2ccc3c(c2)OCO3)CC1 | active: 20.6 µM | 
2 | Cc1cc(NCCOCCO)n2c(nc3ccccc32)c1C#N | inconclusive: 20.6 µM [falling, single point] | 
3 | COc1ccc(N(Cc2ccccc2)C(=O)CSc2nnc(Cn3nnc4ccccc43)o2)cc1 | inconclusive: 29.1 µM [falling, single point] | 
4 | COC(=O)c1ccccc1NC(=O)c1cccc(COc2ccccc2Cl)c1 | inconclusive: 0.291 µM [activator, full curve, poor fit] | 
5 | Cc1nnsc1NC(=O)OCc1ccccc1Cl | inconclusive: 16.4 µM [falling, partial curve] | 
6 | O=C(C1CCCCC1)N1CCN=C1SCc1cccnc1 | inconclusive: 2.91 µM [falling, partial curve, poor fit] | 
7 | CC(C)c1ccc(C(=O)NC(=S)NCc2cccnc2)cc1 | inconclusive: 20.6 µM [falling, single point] | 
8 | O=C(O)CSc1nc2ccc(NC(=O)COc3ccc(Cl)cc3)cc2s1 | inconclusive: 18.4 µM [activator, partial curve, poor fit] | 
9 | O=C(CN1CCOCC1)Nc1ncc(Cc2ccccc2Cl)s1 |  | inactive: 7.25%
10 | Cc1ccc(C(=O)NC(=S)Nc2cc(-c3nc4ccccc4s3)ccc2C)cc1 | inconclusive: 10.3 µM [activator, partial curve] | 
11 | COc1ccccc1NC(=O)/C=C/c1ccc(OC)c(S(=O)(=O)N2CCOCC2)c1 | inconclusive: 0.0259 µM [activator, full curve, poor fit] | 
12 | CC(C1CC1)N(Cc1ccccc1)C(=S)Nc1ccccc1Cl (stereo not drawn) | active: 29.1 µM | 
13 | C=C1C(=O)C=C2CN(C(=O)c3ccccc3)[C@@](Cc3ccc(F)cc3)(C(=O)OC)[C@@H]12 | active: 13 µM | 
14 | C(=N\Nc1nc2ccccc2s1)/c1ccc2c(c1)OCO2 | inconclusive: 29.1 µM [activator, single point] | 
15 | Cc1ccc(NC(=O)C2Cc3ccccc3C(=O)O2)cc1 (stereo not drawn) | inconclusive: 7.31 µM [activator, partial curve] | 
16 | CCOc1cccc(C(=O)Nc2cccnc2)c1 | inconclusive: 5.17 µM [activator, full curve] | 
17 | CC(C)(C)OC(=O)N1CCCC(C(=O)Nc2cccc(C(=O)NCCCCc3ccccc3)c2)C1 (stereo not drawn) | inconclusive: 32.6 µM [falling, single point] | 
18 | COc1ccc(NS(=O)(=O)c2ccc3c(c2)N(C(C)=O)CCO3)c(OC)c1 | inconclusive: 29.1 µM [activator, single point] | 
19 | S=C(NCc1ccccc1)N1CCN(c2cccc(Cl)c2)CC1 | inconclusive: 20.6 µM [falling, single point] | 
20 | Cc1ccc2c(c1)[nH]c1c(=O)n(CCN3CCCCC3)cnc12 | inconclusive: 0.461 µM [activator, full curve] | 
21 | CCOC(=O)c1c(NC(=O)c2cc(=O)c3cc(C)cc(C)c3o2)sc(C)c1C |  | inactive: -4.46%
22 | Cc1c(C(=O)Nc2nnc(C(F)(F)F)s2)oc2ccccc12 |  | inactive: 19.8%
23 | CC(CNc1ccc([N+](=O)[O-])c2cccnc12)Nc1c([N+](=O)[O-])cc(C(F)(F)F)cc1[N+](=O)[O-] (stereo not drawn) | inconclusive: 0.206 µM [falling, full curve] | 

Row | SMILES | Potency | activity change, negative = inhibition
24 | O=C1CCc2cc(S(=O)(=O)Nc3ccc(-c4ccccc4)cc3)ccc2N1 | active: 11.6 µM | 
25 | Cc1ccc(-c2nc(CN(C)Cc3ccc4nccnc4c3)c(C)o2)s1 |  | inactive: -17.1%
26 | COc1ccc(NC(=O)COC(=O)/C=C/c2ccc(OC)c(S(=O)(=O)N3CCOCC3)c2)cc1 | inconclusive: 0.0517 µM [activator, full curve, poor fit] | 
27 | COc1ccc(OC)c(-n2c3c(cc(-c4nc(-c5ccc(Cl)cc5)cs4)c2=O)C(=O)CC(C)(C)C3)c1 |  | inactive: 8.23%
28 | Cc1cc(NCCCCCCCNc2cc(C)nc3cc([N+](=O)[O-])ccc23)c2ccc([N+](=O)[O-])cc2n1 | inconclusive: 25.9 µM [falling, partial curve] | 
29 | Cc1c(NC(=O)C(C)(C)Oc2ccc(Cl)cc2)cccc1-c1nc2ccccc2o1 | inconclusive: 13 µM [falling, partial curve] | 
30 | COc1cc2[nH]c(=S)nc(NC3CCCCCC3)c2cc1OC |  | inactive: 1.43%
31 | COCCn1c(-c2ccc(OC(F)(F)C(F)C(F)(F)F)cc2)nc2c1c(=O)[nH]c(=O)n2CC(C)C (stereo not drawn) | active: 18.4 µM | 
32 | Cc1ccc(CSc2nnc(-c3ccco3)o2)cc1 | inconclusive: 6.51 µM [activator, partial curve] | 
33 | Cc1ccc2c(=O)c(C(=O)c3ccc(F)cc3)cn(CC(=O)Nc3ccc4c(c3)OCCO4)c2n1 |  | inactive: -3.58%
34 | Cc1ccccc1-c1cc(-c2ccccc2O)n[nH]1 | inconclusive: 20.6 µM [activator, partial curve] | 
35 | CC(=O)Nc1ccc(S(=O)(=O)N2CCN=C2SCc2ccc([N+](=O)[O-])cc2)cc1 | active: 8.2 µM | 
36 | Cc1ccc(-n2ncc3c(N4CCN(c5ccccc5)CC4)ncnc32)c(C)c1 | inconclusive: 18.4 µM [falling, single point] | 
37 | CN(C(=O)Nc1cnc2ccccc2c1)c1ccccc1 | inconclusive: 10.3 µM [activator, partial curve, poor fit] | 
38 | COc1cccc(C(=O)NOCc2ccccc2)c1OC | inconclusive: 8.2 µM [activator, partial curve] | 
39 | COc1cccc(C(=O)NCCC2=CCCCC2)c1 | inconclusive: 0.731 µM [activator, partial curve] | 
40 | Cc1ccc(NC(=O)c2nnn(-c3cccc(C(F)(F)F)c3)c2N)cc1 | inconclusive: 2.91 µM [falling, full curve, poor fit] | 
41 | CC(=O)C1=C(c2ccccc2)NC(=S)NC1c1cc(Cl)c(OC(C)C)c(Cl)c1 (stereo not drawn) | inconclusive: 16.4 µM [falling, partial curve] | 
42 | O=C(Nc1ccc(F)cc1)c1cc(S(=O)(=O)Nc2ccc(F)cc2)cs1 | active: 18.4 µM | 
43 | COc1ccccc1C1CC(c2ccccc2)=NN1S(=O)(=O)c1ccccc1 (stereo not drawn) |  | inactive: -25.1%
44 | Cc1cc(C)nc(N2CCCC(C(=O)NC3CC3)C2)n1 (stereo not drawn) | inconclusive: 9.2 µM [activator, partial curve, poor fit] | 
45 | Cn1c(=O)c2c(nc(NCCCO)n2Cc2cccc(Br)c2)n(C)c1=O | inconclusive: 7.31 µM [falling, partial curve] | 
46 | COc1ccccc1CNC(=O)CSc1ccc(-c2sc(-c3ccccc3)nc2C)nn1 | inconclusive: 29.1 µM [falling, single point] | 

Records 34 to 37 from above:
Row | SMILES | Potency | activity change, negative = inhibition
34 | Cc1ccccc1-c1cc(-c2ccccc2O)n[nH]1 | inconclusive: 20.6 µM [activator, partial curve] | 
35 | CC(=O)Nc1ccc(S(=O)(=O)N2CCN=C2SCc2ccc([N+](=O)[O-])cc2)cc1 | active: 8.2 µM | 
36 | Cc1ccc(-n2ncc3c(N4CCN(c5ccccc5)CC4)ncnc32)c(C)c1 | inconclusive: 18.4 µM [falling, single point] | 
37 | CN(C(=O)Nc1cnc2ccccc2c1)c1ccccc1 | inconclusive: 10.3 µM [activator, partial curve, poor fit] | 

The results go on.

Row | SMILES | Potency | activity change, negative = inhibition
47 | Cc1c(C)n(Cc2ccc(F)cc2)c2ccc(C(=O)NCCN3CCOCC3)cc12 |  | inactive: -17.6%
48 | CCOC(=O)c1csc(NC(=O)c2cc(OC)c(OC)c(OC)c2)n1 | inconclusive: 16.4 µM [falling, single point] | 
49 | CN1CC=C2C(C#N)=C(N)C(C#N)(C#N)C(c3cccc(Cl)c3Cl)C2C1 (stereo not drawn) | inconclusive: 14.6 µM [falling, single point] | 
50 | CC(C)COc1ccc(C(=O)Nc2sc3c(c2C(=O)O)CC(C)(C)OC3)cc1 | active: 5.8 µM | 
51 | CCOC(=O)c1cnn(-c2nc3c(C)cccc3s2)c1C(F)(F)F | inconclusive: 10.3 µM [activator, partial curve, poor fit] | 
52 | O=C(COC(=O)Cc1ccc(Br)cc1)NCc1ccc2c(c1)OCO2 |  | inactive: 1.66%
53 | O=S(=O)(c1ccc(Cl)cc1)c1nc(-c2ccco2)oc1SCc1ccccc1F |  | inactive: 3.17% [at 9.27 µM]
54 | C#Cc1ccc([C@H]2C=C(C(=O)NCc3ccccc3)O[C@@H](OCC)[C@@H]2CCCO)cc1 | inconclusive: 20.6 µM [falling, single point] | 
55 | Fc1ccc(Nc2nc3ccccc3s2)cc1 | inconclusive: 3.26 µM [activator, full curve] | 
56 | O=C(N1CCOCC1)N1CCC(n2nnc3cc(F)ccc32)CC1 | inconclusive: 0.58 µM [falling, partial curve, poor fit] | 
57 | COc1cc(-c2nc3nc(C)cc(C)n3c2Nc2ccc(Cl)cc2)ccc1O | inconclusive: 0.517 µM [activator, partial curve, poor fit] | 
58 | Cc1occc1C(=O)Nc1nccs1 |  | inactive: 8.5%
59 | CCOC(=O)C1CCCN(c2cc(C)nc3cc(-c4ccc(F)cc4)nn23)C1 (stereo not drawn) |  | inactive: -11.4%
60 | COc1ccc(S(=O)(=O)NCC2CCC(C(=O)NCC(OC)OC)CC2)cc1 (stereo not drawn) |  | inactive: 2.32%
61 | FC(F)(F)c1cccc(NC(=S)N2CCN(c3cccc(C(F)(F)F)c3)CC2)c1 | inconclusive: 29.1 µM [falling, single point] | 
62 | COCC(=O)Nc1ccc(N2CCOCC2)c(S(=O)(=O)Nc2ccc(OC)cc2)c1 |  | inactive: 15%
63 | CC(=O)N1CCN(c2ccc(NC(=O)c3ccco3)cc2)CC1 | inconclusive: 3.26 µM [activator, full curve] | 
64 | CCNc1nc(NCC)nc(OCCNS(=O)(=O)c2cc(C)ccc2C)n1 |  | inactive: 4.22%
65 | CCOC(=O)Nc1ccc2c(c1)Nc1ccccc1S2 | inconclusive: 11.6 µM [falling, partial curve, poor fit] | 
66 | O=C(c1cc2ccc3cccnc3c2[nH]1)N1CCN(c2ccccc2)CC1 | inconclusive: 29.1 µM [falling, single point] | 
67 | CC1(C)CC(=O)C(C(C2=C(O)CC(C)(C)CC2=O)c2ccc(Br)s2)C(=O)C1 (stereo not drawn) |  | inactive: 2.35%
68 | O=C(Nc1ccc2c(c1)[nH]c(=O)c1ccccc12)C(F)(F)F | inconclusive: 0.461 µM [falling, full curve] | 

Reference: PubChem BioAssay AID504444 (National Center for Advancing Translational Sciences (NCATS), 2011)
